Some of the results follow.
biological target: OsWRKY34 (Oryza sativa, UniProt Q0JBA9 1-250); test: protein-binding microarray (RPBM); PBS, 2% BSA, 51.3 ng/ul salmon testes DNA, 50 uM zinc acetate, 200 nM TF, 25 C, 1 h; high values mean tight binding; conditions: protein: recombinant; tags: N-terminal polyhistidine and DsRed monomer fusion (pET32a); label: CyDye5-dUTP incorporated in the synthesized complementary strand; 3' TTTTT single-stranded linker to array surface; dsDNA, one strand shown
Summary of the method: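 Transcription factors were each fused at the N-terminus to a polyhistidine tag plus DsRed and expressed in E. coli BL21-CodonPlus before Ni–NTA purification. Binding to a double-stranded custom Agilent array was carried out with 200 nM protein at 25 °C for 1 h in PBS, 2% BSA, salmon testes DNA and 50 µM zinc acetate. The binding signal is per-feature fluorescence intensity, in arbitrary units, on an Axon 4000B scanner.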

Amino acid sequences for entries named in this document (tags omitted).
UniProt Q0JBA9, entry or part of it: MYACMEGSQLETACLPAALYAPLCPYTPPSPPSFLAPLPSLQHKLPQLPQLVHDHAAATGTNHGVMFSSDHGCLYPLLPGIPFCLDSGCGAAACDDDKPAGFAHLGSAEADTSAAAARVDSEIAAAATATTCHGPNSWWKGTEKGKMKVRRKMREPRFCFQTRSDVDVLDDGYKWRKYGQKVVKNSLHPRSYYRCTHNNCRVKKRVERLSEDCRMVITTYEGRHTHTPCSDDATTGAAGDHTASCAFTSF

Sequence	binding signal
CCGTGCCCACCTGAGCTCGCTTCGCCGCCATTGGCAGCCTCGGAGTCACCTAGTGCAG	9100 fluorescence intensity (a.u.)
TCTAATCTCTTGGTGGACGTCCACCCGTTTTTTCGTGTCACGGAGTCACCTAGTGCAG	8070 fluorescence intensity (a.u.)
CGTATCGGCCCAGCTTCACTCATACCGCGATAAGCTAAGACGGAGTCACCTAGTGCAG	8300 fluorescence intensity (a.u.)
GCTTATAGCTCACCATTATCCTTGCTCTTATGTACATATTCGGAGTCACCTAGTGCAG	9280 fluorescence intensity (a.u.)
TGGATATCCACAGTTTGTCCTTTTATTTGGATTGTTTATCCGGAGTCACCTAGTGCAG	8400 fluorescence intensity (a.u.)
ACCTAATGTCTCAATGTCCTTATAAGCATTGTTTTGAGGACGGAGTCACCTAGTGCAG	8230 fluorescence intensity (a.u.)
AGGTGTCTATCTTGCTGTGGCCATTAATTGGAACCAAAATCGGAGTCACCTAGTGCAG	9240 fluorescence intensity (a.u.)
GCCAGTATTTTCAGAGATATCCTTTTGCAATTCGGTCCTTCGGAGTCACCTAGTGCAG	8560 fluorescence intensity (a.u.)
GGCGCCATTTTGCTTCTCTTGCCGCTGGATTCTTGATTTTCGGAGTCACCTAGTGCAG	10900 fluorescence intensity (a.u.)
ACATGAGGCAGCTTTCCATATCACCGTATCCATAGCCCATCGGAGTCACCTAGTGCAG	8060 fluorescence intensity (a.u.)
TTTGTGTTATTCTACTTACAACCTCCGTGTCTTTATGTGACGGAGTCACCTAGTGCAG	8580 fluorescence intensity (a.u.)
GCGATCTTCGCGGCTTCACCATCATACCTGCAACTGCAACCGGAGTCACCTAGTGCAG	8220 fluorescence intensity (a.u.)
ATCAAACGTTCGATGTGACCCCAAAATTTTTCTATTCGCGCGGAGTCACCTAGTGCAG	8360 fluorescence intensity (a.u.)
GAGGCGGGGAGGGAGGCAGGTTCGCGCGGATCTCGCGATGCGGAGTCACCTAGTGCAG	10900 fluorescence intensity (a.u.)
CCGGTAGCTTGCTTGTGCTTCGTATCCATGGATCCTCACCCGGAGTCACCTAGTGCAG	8320 fluorescence intensity (a.u.)
ATAGCAACATCGTCGACCTGCTCTGCTGCATCTCTAGCCACGGAGTCACCTAGTGCAG	8270 fluorescence intensity (a.u.)
GCTTTTGACCAACCGCTCCGCACTAGCGGCCGCGCCGCGCCGGAGTCACCTAGTGCAG	9770 fluorescence intensity (a.u.)
TTGTTTCGTATGTCTCTAGTGTGACTATTGCATGTACTTGCGGAGTCACCTAGTGCAG	9180 fluorescence intensity (a.u.)
CGCATCCAGCTCATCTCCGTCGGCTGTCGCCCGTCTTCACCGGAGTCACCTAGTGCAG	11700 fluorescence intensity (a.u.)
GCCATTCTCTTCTTCTTCTTCTTCTTCTTCTTCTTCTTCTCGGAGTCACCTAGTGCAG	11300 fluorescence intensity (a.u.)
CGCCCGCGCGCCACCTGATTCGCATTCGCTCCATCCGCTTCGGAGTCACCTAGTGCAG	9730 fluorescence intensity (a.u.)
CGACTGTGAATTGCCGTACACCTCCACTTCGCCAACTATCCGGAGTCACCTAGTGCAG	9080 fluorescence intensity (a.u.)
TGTTTGCATGCTAAAGCTTTCATCTCTTCGTCGTCATCAGCGGAGTCACCTAGTGCAG	8080 fluorescence intensity (a.u.)
TTATGCTCTTTAGTTTTTCTGCGCACGTTCTCCGATCAATCGGAGTCACCTAGTGCAG	8060 fluorescence intensity (a.u.)
GTCTCGTTCTCGCCGCCTATATGTAGCGCCACCGATTCCCCGGAGTCACCTAGTGCAG	9380 fluorescence intensity (a.u.)
TTACACGTGTACGAGTAGGCCGTCGCTCTCTCTATCATCCCGGAGTCACCTAGTGCAG	8150 fluorescence intensity (a.u.)
AGCTCTTTCTTGATTAGATCATCTCATGCTTTGCCCAGTCCGGAGTCACCTAGTGCAG	8400 fluorescence intensity (a.u.)

Sequence	binding signal
CCAGCATCATCACCGCATCACGTCCTCGTCGGCCTCCACGCGGAGTCACCTAGTGCAG	11600 fluorescence intensity (a.u.)
CTCTTTGTGTTCAAAACCTTGTTTTCCTGTAGTCTTCTCTCGGAGTCACCTAGTGCAG	8180 fluorescence intensity (a.u.)
CCAGTCAATTTCCCCACGTGCCATCTCGCTGCATCCGCCGCGGAGTCACCTAGTGCAG	10500 fluorescence intensity (a.u.)
CCGCCGGGCTTCGCCATGTACGGTCACCGCGGGTAAGCCACGGAGTCACCTAGTGCAG	8040 fluorescence intensity (a.u.)
ACCACCGCCGCCGCCGTCCCAGACACCAACTCCACCGCATCGGAGTCACCTAGTGCAG	13400 fluorescence intensity (a.u.)
TCGATCGTCTTCCTTGTTGCGCGCGCGCGTTCTCTAATCGCGGAGTCACCTAGTGCAG	9590 fluorescence intensity (a.u.)
CCAAGCTCACCCATGTTTCTCCCTACACATCTCTCTTCCACGGAGTCACCTAGTGCAG	8350 fluorescence intensity (a.u.)
CGACGATGTTGTCCCCACTCCAGCCGCCGCCGTGCCTTTCCGGAGTCACCTAGTGCAG	9230 fluorescence intensity (a.u.)
TACGCCCATGATGGTCTTACTAGTCAATTTTATTACTATTCGGAGTCACCTAGTGCAG	10000 fluorescence intensity (a.u.)
ATTTAACTTTAACTTCCTCGTTTTCCGTTAGCACACTTTTCGGAGTCACCTAGTGCAG	10300 fluorescence intensity (a.u.)
ATCAGCCGTGGTAATGGAGTTATGTCAGCCGTACGATCTACGGAGTCACCTAGTGCAG	10100 fluorescence intensity (a.u.)
CTGTTTTTCTTATCTAGGAATATTTTTTTCCTGTTCAGATCGGAGTCACCTAGTGCAG	8230 fluorescence intensity (a.u.)
AGCTTCCAAGTCAAGATATGGTCTCCACGTATTTCTCTCTCGGAGTCACCTAGTGCAG	8290 fluorescence intensity (a.u.)
TGGTTTGGTTTGCACTTAATGTTCGTCACAGTTAAAGTGGCGGAGTCACCTAGTGCAG	13600 fluorescence intensity (a.u.)
GGTTTCGTTTCGATTTTTCTTTTCTGGGTCCTTCATTCTCCGGAGTCACCTAGTGCAG	8480 fluorescence intensity (a.u.)
TTAGGGTTTGTGTTAGTTTGTATTAGTACATGGATAGTAACGGAGTCACCTAGTGCAG	8580 fluorescence intensity (a.u.)
AGTTGCACATGTCTACTTGTGATCTGTTATCTTGTCCATACGGAGTCACCTAGTGCAG	9660 fluorescence intensity (a.u.)
CTTCGTCGCCATCCGATAAAGACTCCTCATCCAATAGCATCGGAGTCACCTAGTGCAG	8340 fluorescence intensity (a.u.)
GCTTTCTATCAAAGCAGGGTTCTCTGCCTTTGTTTTCCAACGGAGTCACCTAGTGCAG	10500 fluorescence intensity (a.u.)
CTCTCTCTCTCTCTCTCTCTCTCTCTCTGTTTTACTACAACGGAGTCACCTAGTGCAG	13800 fluorescence intensity (a.u.)
ATTGATCAGCTGCTCCTCGCGAACTGTCAGCGGCTGGTAACGGAGTCACCTAGTGCAG	8820 fluorescence intensity (a.u.)
TGTGGCGGGGAGGGAGGGAGGGAGAAGGGGCGGCGTGTTGCGGAGTCACCTAGTGCAG	16600 fluorescence intensity (a.u.)
ACACTGTTTGACCAGAAAATAGGAGTACTCAGCTTTCTTTCGGAGTCACCTAGTGCAG	8920 fluorescence intensity (a.u.)
AACTGCTGACTACCTTCTTCACACTTGTTTTTACTCCCAACGGAGTCACCTAGTGCAG	9940 fluorescence intensity (a.u.)
CATTCTCGCTCCGCCCAGCCACCGCCTCCATCTCGACCTCCGGAGTCACCTAGTGCAG	9570 fluorescence intensity (a.u.)
ATCCCAGTTTCCGTTCTCTCTTCCTTTTCCGTTTACCACACGGAGTCACCTAGTGCAG	12000 fluorescence intensity (a.u.)
CATCGCATTATGAAATGTCTCGTTCGATCTATGTTGTTATCGGAGTCACCTAGTGCAG	9550 fluorescence intensity (a.u.)

Shown in markdown: part of the list above.

| Sequence | binding signal |
| --- | --- |
| CTGTTTTTCTTATCTAGGAATATTTTTTTCCTGTTCAGATCGGAGTCACCTAGTGCAG | 8230 fluorescence intensity (a.u.) |
| AGCTTCCAAGTCAAGATATGGTCTCCACGTATTTCTCTCTCGGAGTCACCTAGTGCAG | 8290 fluorescence intensity (a.u.) |
| TGGTTTGGTTTGCACTTAATGTTCGTCACAGTTAAAGTGGCGGAGTCACCTAGTGCAG | 13600 fluorescence intensity (a.u.) |
| GGTTTCGTTTCGATTTTTCTTTTCTGGGTCCTTCATTCTCCGGAGTCACCTAGTGCAG | 8480 fluorescence intensity (a.u.) |
| TTAGGGTTTGTGTTAGTTTGTATTAGTACATGGATAGTAACGGAGTCACCTAGTGCAG | 8580 fluorescence intensity (a.u.) |
| AGTTGCACATGTCTACTTGTGATCTGTTATCTTGTCCATACGGAGTCACCTAGTGCAG | 9660 fluorescence intensity (a.u.) |
| CTTCGTCGCCATCCGATAAAGACTCCTCATCCAATAGCATCGGAGTCACCTAGTGCAG | 8340 fluorescence intensity (a.u.) |
| GCTTTCTATCAAAGCAGGGTTCTCTGCCTTTGTTTTCCAACGGAGTCACCTAGTGCAG | 10500 fluorescence intensity (a.u.) |
| CTCTCTCTCTCTCTCTCTCTCTCTCTCTGTTTTACTACAACGGAGTCACCTAGTGCAG | 13800 fluorescence intensity (a.u.) |
| ATTGATCAGCTGCTCCTCGCGAACTGTCAGCGGCTGGTAACGGAGTCACCTAGTGCAG | 8820 fluorescence intensity (a.u.) |
| TGTGGCGGGGAGGGAGGGAGGGAGAAGGGGCGGCGTGTTGCGGAGTCACCTAGTGCAG | 16600 fluorescence intensity (a.u.) |
| ACACTGTTTGACCAGAAAATAGGAGTACTCAGCTTTCTTTCGGAGTCACCTAGTGCAG | 8920 fluorescence intensity (a.u.) |
| AACTGCTGACTACCTTCTTCACACTTGTTTTTACTCCCAACGGAGTCACCTAGTGCAG | 9940 fluorescence intensity (a.u.) |
| CATTCTCGCTCCGCCCAGCCACCGCCTCCATCTCGACCTCCGGAGTCACCTAGTGCAG | 9570 fluorescence intensity (a.u.) |
| ATCCCAGTTTCCGTTCTCTCTTCCTTTTCCGTTTACCACACGGAGTCACCTAGTGCAG | 12000 fluorescence intensity (a.u.) |
| CATCGCATTATGAAATGTCTCGTTCGATCTATGTTGTTATCGGAGTCACCTAGTGCAG | 9550 fluorescence intensity (a.u.) |

Reference: PMC7819943, “Rice protein-binding microarrays: a tool to detect cis-acting elements near promoter regions in rice”
